From article PMC3543444
These are yes or no findings as the source states them, for the method shown. Binding seen in cells or lysates may run through a third protein. Some binding calls cover weakened binding; strength is not graded here.

Amino acid sequences for entries named in this document (tags omitted).
UniProt P09631: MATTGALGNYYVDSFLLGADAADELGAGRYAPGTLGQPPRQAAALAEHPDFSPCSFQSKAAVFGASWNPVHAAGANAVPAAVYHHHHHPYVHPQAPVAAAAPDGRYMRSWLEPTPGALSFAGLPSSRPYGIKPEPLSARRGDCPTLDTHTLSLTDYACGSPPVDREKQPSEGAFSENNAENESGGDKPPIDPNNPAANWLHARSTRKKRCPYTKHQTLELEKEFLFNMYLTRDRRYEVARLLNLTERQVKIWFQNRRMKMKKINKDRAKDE
UniProt P50207: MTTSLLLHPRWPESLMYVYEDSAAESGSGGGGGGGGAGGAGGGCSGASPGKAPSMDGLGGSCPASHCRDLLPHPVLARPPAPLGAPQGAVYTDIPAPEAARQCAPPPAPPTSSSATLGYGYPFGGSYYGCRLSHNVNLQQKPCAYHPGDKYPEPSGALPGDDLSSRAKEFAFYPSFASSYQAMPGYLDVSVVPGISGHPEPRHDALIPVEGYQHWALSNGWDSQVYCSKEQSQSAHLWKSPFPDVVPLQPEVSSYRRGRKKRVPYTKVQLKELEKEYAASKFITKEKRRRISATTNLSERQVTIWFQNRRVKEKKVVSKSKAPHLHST
UniProt Q13619: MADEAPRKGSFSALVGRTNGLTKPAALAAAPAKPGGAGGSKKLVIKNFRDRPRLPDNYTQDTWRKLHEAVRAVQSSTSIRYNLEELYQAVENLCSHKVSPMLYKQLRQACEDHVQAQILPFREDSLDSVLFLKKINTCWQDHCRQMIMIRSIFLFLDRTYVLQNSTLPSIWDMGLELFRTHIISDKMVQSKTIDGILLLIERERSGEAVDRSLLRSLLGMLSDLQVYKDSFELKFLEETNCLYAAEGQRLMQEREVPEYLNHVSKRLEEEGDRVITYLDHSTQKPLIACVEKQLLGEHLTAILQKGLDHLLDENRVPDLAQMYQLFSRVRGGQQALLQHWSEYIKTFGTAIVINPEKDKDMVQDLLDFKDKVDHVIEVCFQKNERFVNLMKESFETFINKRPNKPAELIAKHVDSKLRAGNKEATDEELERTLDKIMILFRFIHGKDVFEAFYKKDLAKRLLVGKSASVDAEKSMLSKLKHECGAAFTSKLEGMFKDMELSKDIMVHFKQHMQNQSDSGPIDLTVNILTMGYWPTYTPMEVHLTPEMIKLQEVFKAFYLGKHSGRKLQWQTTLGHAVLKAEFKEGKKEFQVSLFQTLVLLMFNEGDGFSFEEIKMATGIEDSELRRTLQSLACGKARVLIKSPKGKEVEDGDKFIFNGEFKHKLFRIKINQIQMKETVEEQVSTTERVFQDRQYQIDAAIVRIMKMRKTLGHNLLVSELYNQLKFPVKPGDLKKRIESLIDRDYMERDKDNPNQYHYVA
UniProt Q16531: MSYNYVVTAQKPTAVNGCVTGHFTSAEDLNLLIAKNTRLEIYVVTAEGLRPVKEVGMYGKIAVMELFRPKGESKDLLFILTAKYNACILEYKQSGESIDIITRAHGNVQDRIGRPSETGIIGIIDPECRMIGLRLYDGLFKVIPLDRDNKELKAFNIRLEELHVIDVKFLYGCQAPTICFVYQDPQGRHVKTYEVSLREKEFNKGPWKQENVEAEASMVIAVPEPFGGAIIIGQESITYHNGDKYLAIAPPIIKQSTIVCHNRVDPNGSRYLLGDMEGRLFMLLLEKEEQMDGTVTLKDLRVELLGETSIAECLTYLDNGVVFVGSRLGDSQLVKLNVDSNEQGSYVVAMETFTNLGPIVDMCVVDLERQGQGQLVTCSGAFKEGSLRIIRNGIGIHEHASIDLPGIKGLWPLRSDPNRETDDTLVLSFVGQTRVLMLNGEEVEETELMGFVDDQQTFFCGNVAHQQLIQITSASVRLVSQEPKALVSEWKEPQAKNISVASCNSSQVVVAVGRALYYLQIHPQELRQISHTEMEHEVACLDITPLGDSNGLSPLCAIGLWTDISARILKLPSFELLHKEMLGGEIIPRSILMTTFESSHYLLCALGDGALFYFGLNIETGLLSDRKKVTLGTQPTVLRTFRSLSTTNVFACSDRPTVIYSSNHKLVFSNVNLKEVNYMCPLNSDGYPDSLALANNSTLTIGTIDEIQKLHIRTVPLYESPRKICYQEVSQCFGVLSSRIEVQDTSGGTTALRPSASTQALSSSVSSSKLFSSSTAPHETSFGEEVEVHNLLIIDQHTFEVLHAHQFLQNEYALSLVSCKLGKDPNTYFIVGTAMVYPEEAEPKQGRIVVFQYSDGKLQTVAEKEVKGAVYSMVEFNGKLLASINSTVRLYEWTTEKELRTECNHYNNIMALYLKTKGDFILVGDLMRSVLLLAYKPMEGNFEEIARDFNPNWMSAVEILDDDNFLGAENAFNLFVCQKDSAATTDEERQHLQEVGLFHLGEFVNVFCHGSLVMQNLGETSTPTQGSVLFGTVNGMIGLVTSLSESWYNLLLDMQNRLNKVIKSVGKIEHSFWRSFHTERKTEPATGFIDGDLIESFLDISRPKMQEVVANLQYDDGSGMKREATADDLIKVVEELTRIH

How the values were obtained:
[1] = biological target: Flag-Hoxa9 (HEK-293) (UniProt P09631); assay: co-IP; Flag-Hox derivatives transfected in HEK-293; extract in RIPA buffer (0.5% Triton X-100, 20 mM Hepes pH 8.0, 150 mM NaCl); immunoprecipitation with anti-Flag antibody; immunoblot with anti-Cul4a, anti-Ddb1 and anti-Roc1
[2] = biological target: Flag-Hoxc13 (HEK-293) (UniProt P50207); assay: as above

binding [1] | binding [2] | Substance
binds | no binding | endogenous Cul4a (HEK-293) (from UniProt Q13619 1-759)
binds | no binding | endogenous Ddb1 (HEK-293) (from UniProt Q16531 1-1140)
